Reference: the RNAGym collection of RNA variant scans (doi:10.1126/science.aae0568)
This sample is rich in variants without activity.

B1: tRNA (parent)
chain: GUUCCGUUGGCGUAAUGGUAACGCGUCUCCCUCCUAAGGAGAAGACUGCGGGUUCGAGUCCCGUACGGAACG

Variants of: B1
Assay: yeast fitness relative to wild type (ratio to wild type); higher = fitter; tRNA-Arg(CCU), competitive growth, 37 C, YPD
Method in brief: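 A pool of Saccharomyces cerevisiae strains, each with a tRNA-Arg(CCU) gene variant at the native genomic locus, was competed in YPD at 37°C for 24 hours across six parallel replicates. The variants had been chemically synthesised at a 3% per-site mutation rate over 69 sites, and gene amplicons before and after competition were read by 100-nucleotide paired-end sequencing. Darwinian fitness relative to wild type rested on changes in genotype frequencies. Genotypes required ≥ 100 starting reads, and estimates < 0.5 were set to 0.5.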

U19C C31U C33G G41A C49G U54C G63A and U28G A57U U59C cannot be ordered by yeast fitness: no more than 0.5 for the first, no more than 0.5 for the second.

First: A20C C24U A40G A42U G50A G51C A70C
Second: C11U C46G C61U
The yeast fitness of the first is lower: no more than 0.5 for the first, 0.596 for the second.

C5U C55A A69C and G18C U19G A45C G67A cannot be ordered by yeast fitness: no more than 0.5 for the first, no more than 0.5 for the second.

Going from C46A C49A C61A to G10U A40G G58A G68C, the yeast fitness rises from no more than 0.5 to 0.631.

C4U G6A C34A and A15U G18C G41A A69C A70G cannot be ordered by yeast fitness: no more than 0.5 for the first, no more than 0.5 for the second.

C24U C31U C34U A36C G39A G41C and U2A C33G A42C A69U cannot be ordered by yeast fitness: no more than 0.5 for the first, no more than 0.5 for the second.

First: C4U C29A G52C C55G U59G
Second: U7C C30U C34A C46U A69C
The yeast fitness of the first is higher: 0.656 for the first, no more than 0.5 for the second.

A14U A20C C33A and C5G C11U G17C A43U A69C cannot be ordered by yeast fitness: no more than 0.5 for the first, no more than 0.5 for the second.

First: U13C C31U A69U
Second: U3C U13A C31U G41A A57C A70U
The yeast fitness of the first is higher: 0.835 for the first, no more than 0.5 for the second.

C5U A21G C24A A37U and U16A G58C U64A A69U cannot be ordered by yeast fitness: no more than 0.5 for the first, no more than 0.5 for the second.

First: C49U G51A A69U
Second: A21U C31G A45C
The yeast fitness of the first is higher: 0.573 for the first, no more than 0.5 for the second.

C5U C22U A42U and G12A A21G C46G G51A G67C cannot be ordered by yeast fitness: no more than 0.5 for the first, no more than 0.5 for the second.

C4G C11U C62A C66U and U35A A43C G51C C62A A70U cannot be ordered by yeast fitness: no more than 0.5 for the first, no more than 0.5 for the second.

Going from G12A C61U to G18A C27U C31A, the yeast fitness falls from 0.924 to no more than 0.5.

G10A C22U G52C U54C and U13A A20G A45C C66G cannot be ordered by yeast fitness: no more than 0.5 for the first, no more than 0.5 for the second.

C11A G12C G63A and U8C A14G A45C cannot be ordered by yeast fitness: no more than 0.5 for the first, no more than 0.5 for the second.

First: U7G A70U
Second: U2C G18C G23C C33U G39A A43U C62A G63C
The yeast fitness of the first is higher: 1.01 for the first, 0.851 for the second.

Going from G9C G23A C24A C55A to G9C A20C, the yeast fitness rises from no more than 0.5 to 0.626.

First: U2C A15U U16A
Second: A20U C33U G38C A40U G44C G51C C60U A69G
The yeast fitness of the first is higher: 0.62 for the first, no more than 0.5 for the second.

C4A A15C C27G C62G and U8G G41A C60G cannot be ordered by yeast fitness: no more than 0.5 for the first, no more than 0.5 for the second.

C4U C11A C29U A65U and U7A C33U C49U cannot be ordered by yeast fitness: no more than 0.5 for the first, no more than 0.5 for the second.

First: U13C U26A
Second: G9C A43C C46G
The yeast fitness of the first is higher: 0.982 for the first, no more than 0.5 for the second.

Going from A14G C30U C46A G50A to G63A A70U, the yeast fitness rises from no more than 0.5 to 0.816.

Going from C34A A42G to C5G A43U G68U, the yeast fitness falls from 0.676 to no more than 0.5.

C5A A15G C61A and G10C A14C A15G cannot be ordered by yeast fitness: no more than 0.5 for the first, no more than 0.5 for the second.

G12C A36U C55U A69C and G10C C33U cannot be ordered by yeast fitness: no more than 0.5 for the first, no more than 0.5 for the second.

A20C C27U A37C A42G C66U and C29U G67U A69U cannot be ordered by yeast fitness: no more than 0.5 for the first, no more than 0.5 for the second.

G17C A20U G52C and A21U A42C U47G A69U cannot be ordered by yeast fitness: no more than 0.5 for the first, no more than 0.5 for the second.

U2C U3C U19A U64A and U2C U16A C30U G56A A69C cannot be ordered by yeast fitness: no more than 0.5 for the first, no more than 0.5 for the second.

U8A G9A A36C A43U C61U G68A and C22A G50A G68C cannot be ordered by yeast fitness: no more than 0.5 for the first, no more than 0.5 for the second.

First: A36U A37C C49A U53G
Second: C5A A36U
The yeast fitness of the first is lower: no more than 0.5 for the first, 0.678 for the second.

Going from C30U U54A G63A to G10C A43U G63C C66A, the yeast fitness falls from 0.704 to no more than 0.5.

Compared with C46A G67C, C27A G38C U53C is lower in yeast fitness: 0.896 for the first, no more than 0.5 for the second.

C27G C33U A43U G44A and C4A C29U G50A C66A cannot be ordered by yeast fitness: no more than 0.5 for the first, no more than 0.5 for the second.

First: G6A G44A A69C
Second: A20U G23A G63A A70U
The yeast fitness of the first is higher: 0.576 for the first, no more than 0.5 for the second.

Going from G10C C29U C34U G38A G44C to U16C C46G G56A, the yeast fitness rises from no more than 0.5 to 0.748.

C33U G41A C61U and U8C G39C U47C C60A C61G A69U cannot be ordered by yeast fitness: no more than 0.5 for the first, no more than 0.5 for the second.

C29G G48A G67U and C5U U35G G52C G63A cannot be ordered by yeast fitness: no more than 0.5 for the first, no more than 0.5 for the second.

C22G A42U G67A and U13A C33U A37G A40G A45G C61G cannot be ordered by yeast fitness: no more than 0.5 for the first, no more than 0.5 for the second.

Going from A15C A21U C24U A65U G68A to G41C U64G, the yeast fitness rises from no more than 0.5 to 0.735.

Compared with U2C G17A A37C, C24A A37G is lower in yeast fitness: 0.791 for the first, 0.513 for the second.

First: G17C C60G C62G G68C
Second: C5U C33U C62A
The yeast fitness of the first is lower: no more than 0.5 for the first, 0.579 for the second.

C4A U7A U8G A45C A65G C66G and G18C C34U U47A cannot be ordered by yeast fitness: no more than 0.5 for the first, no more than 0.5 for the second.

C29G U32C A65U and G10C G39A U59A G63A cannot be ordered by yeast fitness: no more than 0.5 for the first, no more than 0.5 for the second.

C5G C11G A14U A15U C29A C60G and G18C C31A C61G cannot be ordered by yeast fitness: no more than 0.5 for the first, no more than 0.5 for the second.

U2A G9C U16G U32G G52A G63C and G6A C29A A69C A70U cannot be ordered by yeast fitness: no more than 0.5 for the first, no more than 0.5 for the second.

Compared with G56C A70U, C4G U16C G56A G67C is lower in yeast fitness: 0.83 for the first, no more than 0.5 for the second.

A14G G25A G52A and C11A U35C G50C cannot be ordered by yeast fitness: no more than 0.5 for the first, no more than 0.5 for the second.

C11U C34U G48A C66U and C11U C22G C34G A40C A69U cannot be ordered by yeast fitness: no more than 0.5 for the first, no more than 0.5 for the second.

A15G C24G C31G G50A and C5U G6C A15C G23C C31A A36U A70C cannot be ordered by yeast fitness: no more than 0.5 for the first, no more than 0.5 for the second.

G6A U8A A14C A21U A40G and G25A A40C G51C cannot be ordered by yeast fitness: no more than 0.5 for the first, no more than 0.5 for the second.

C5A G6C A69C and U32A G41C A65U cannot be ordered by yeast fitness: no more than 0.5 for the first, no more than 0.5 for the second.

First: U59A U64A A70C
Second: A20C G56U
The yeast fitness of the first is lower: no more than 0.5 for the first, 0.765 for the second.

Compared with A15C C55A G58C, C22U G68A is higher in yeast fitness: no more than 0.5 for the first, 0.852 for the second.

First: C30A A69C
Second: U2C C11A
The yeast fitness of the first is higher: 1.03 for the first, no more than 0.5 for the second.

U26A C27A C31U and C24G G50C A70G cannot be ordered by yeast fitness: no more than 0.5 for the first, no more than 0.5 for the second.

C11A C31G G50A and G44C A45U C66A cannot be ordered by yeast fitness: no more than 0.5 for the first, no more than 0.5 for the second.

G6A U8C C24U C29G C49A and C11U G39C C62U G63C cannot be ordered by yeast fitness: no more than 0.5 for the first, no more than 0.5 for the second.

Going from U3A A42C A65U C66U G67C to C4G C31U C55A, the yeast fitness falls from 0.569 to no more than 0.5.

U8C G17A G41C U64A A65C and U26A C49A A65U cannot be ordered by yeast fitness: no more than 0.5 for the first, no more than 0.5 for the second.

Compared with G18A G41C A42G U54A, A20C A45C C46U is higher in yeast fitness: no more than 0.5 for the first, 0.587 for the second.

U2G G39C C66A and C30U A37G C55G G58C cannot be ordered by yeast fitness: no more than 0.5 for the first, no more than 0.5 for the second.

U2C G44C C66A and G6A A14U G52A G63C cannot be ordered by yeast fitness: no more than 0.5 for the first, no more than 0.5 for the second.

First: G18C U47C
Second: A40C G63A A69C
The yeast fitness of the first is higher: 0.658 for the first, no more than 0.5 for the second.

A57C G63A G67A and G6A U13A A15G U28C cannot be ordered by yeast fitness: no more than 0.5 for the first, no more than 0.5 for the second.

C4G G12C C29U G38C and G23C C34A cannot be ordered by yeast fitness: no more than 0.5 for the first, no more than 0.5 for the second.

Compared with G10A A14G U32C, A21G C24G A37U is higher in yeast fitness: no more than 0.5 for the first, 0.573 for the second.

Compared with C4A C11U U32A G38C U47A U53G, G9C A15U U28G U54C C55G A69U is lower in yeast fitness: 0.56 for the first, no more than 0.5 for the second.

Compared with U8C A36U, A15U C31U A36G is lower in yeast fitness: 0.647 for the first, 0.568 for the second.

U3G C55U G67C and G12C A21C C46G C49G cannot be ordered by yeast fitness: no more than 0.5 for the first, no more than 0.5 for the second.

U28A A36G G48C A69U A70U and C5A A40G C55A C61U cannot be ordered by yeast fitness: no more than 0.5 for the first, no more than 0.5 for the second.

G9C A15C A69U and C27A A36G A42G cannot be ordered by yeast fitness: no more than 0.5 for the first, no more than 0.5 for the second.

A20U A21C C22U and C11G G52C U54C A57U cannot be ordered by yeast fitness: no more than 0.5 for the first, no more than 0.5 for the second.

G9A C11A C34G A36G A70C and U35C G56A U59C A65C A70G cannot be ordered by yeast fitness: no more than 0.5 for the first, no more than 0.5 for the second.

C29A C33A and A21U G67C G68A cannot be ordered by yeast fitness: no more than 0.5 for the first, no more than 0.5 for the second.

G48A U59C G63A and C24A A45G U54A cannot be ordered by yeast fitness: no more than 0.5 for the first, no more than 0.5 for the second.

Going from C27G A43C C46U C60U A70G to C4U C24G C30G C31U U35A A36U G44A G63C, the yeast fitness rises from no more than 0.5 to 0.654.

C5A C31G A37G C49U C62U G63C and A14C A20U G25C A43C C66U cannot be ordered by yeast fitness: no more than 0.5 for the first, no more than 0.5 for the second.

U13C A20C A40G and U7C C11U A15C G38A A45G G52A C61G cannot be ordered by yeast fitness: no more than 0.5 for the first, no more than 0.5 for the second.

First: A21C U35C C66G
Second: G23A C62U A65C
The yeast fitness of the first is lower: no more than 0.5 for the first, 0.582 for the second.

Going from G9A A14C C55U to G10C A45C C46A C66U, the yeast fitness rises from no more than 0.5 to 0.643.

First: C27G C29U C66U
Second: C5U U26A
The yeast fitness of the first is lower: no more than 0.5 for the first, 0.915 for the second.

Compared with U13C A45C, G12C C22G G23A C55A is lower in yeast fitness: 0.853 for the first, no more than 0.5 for the second.

C27A G38C G51C A69U gave a yeast fitness of no more than 0.5.
